Results: PubChem BioAssay AID540276 (National Center for Advancing Translational Sciences (NCATS), 2011)
About 5,400 (1.8%) of roughly 300,000 compounds were called active. Inconclusive results, whose numbers are uncertain, are shown with a selection of clear calls. Calls follow the shape of the full dose curve; tested in HEK293 cells. Where the call is inconclusive, the potency comes from a doubtful curve fit.

Test: qHTS for inhibitors of binding or entry into cells for Marburg Virus
Settings: Marburg virus pseudotyped entry inhibition, cell reporter; series mostly up to 37.8 µM
Potency is read from the fitted curve at half-maximal effect.

Row | Structure (SMILES) | Potency
1 | O=S(=O)(NCCCN1CCOCC1)c1ccc(Cl)cc1 | inactive
2 | C(=N\n1c2ccccc2c2ccccc21)/c1ccccc1 | inactive
3 | Nc1c(Cl)ncnc1N/N=C/c1ccc(O)cc1 | inactive
4 | CCOc1ccc(CNC(=O)CCCn2nc(C)c3sc4ccccc4c3c2=O)cc1 | inconclusive: 12.6 µM [inhibitor, partial curve, poor fit]
5 | COC(=O)c1[nH]c2ccccc2c1NC(=O)CN1CCN(c2cccc(Cl)c2)CC1 | inconclusive: 35.5 µM [inhibitor, single point]
6 | CCN(CC)CCNC(=O)c1c(O)c2ccccc2n(Cc2ccccc2)c1=O | inconclusive: 35.5 µM [inhibitor, single point]
7 | CCC(C)Nc1sc(S(=O)(=O)CC)nc1S(=O)(=O)c1ccc(C)cc1 (stereo unspecified) | inactive
8 | Cc1ccc(C)c(Nc2ncnc(N)c2[N+](=O)[O-])c1 | inactive
9 | CCCCN(C)C(=O)Cn1c(C2CC(=O)N(c3ccc(C)cc3)C2)nc2ccccc21 (stereo unspecified) | inactive
10 | CCC(C)(C)n1nnnc1C(c1ccncc1)N1CCC(Cc2ccccc2)CC1 (stereo unspecified) | inconclusive: 29.1 µM [inhibitor, single point]
11 | CCOc1ccc(C2c3[nH]c4ccccc4c3CCN2Cc2cccn2-c2ncccn2)cc1 (stereo unspecified) | active: 3.16 µM
12 | Cc1[nH]c2ccccc2c1C(=O)CSc1nc2ccccc2[nH]1 | inconclusive: 20.6 µM [inhibitor, partial curve, poor fit]
13 | O=S(=O)(NCc1c(Cl)cccc1Oc1ccccc1)c1ccccc1 | inconclusive: 14.1 µM [inhibitor, single point]
14 | COc1ccc(CN2CCC(=O)NC2=O)cc1 | inactive
15 | Cc1ccc2c(c1)S/C(=C/c1ccc[n+](C)c1)N2CCO | inconclusive: 1.58 µM [inhibitor, full curve]
16 | Cc1cc(NCCCn2ccnc2)n2ncc(-c3ccc(Cl)cc3)c2n1 | inconclusive: 5.8 µM [activator, single point]
17 | Cc1nnc(NC(=O)Nc2ccc(Cl)c(Cl)c2)s1 | inconclusive: 32.6 µM [inhibitor, single point]
18 | COc1ccc(S(=O)(=O)Nc2ccc3oc4c(c3c2)C(=O)CC(C)(C)C4)cc1 | inactive
19 | CCc1ccc(OCCNC(=O)c2ccccc2SCc2ccc(F)cc2)cc1 | inconclusive: 35.5 µM [inhibitor, single point]
20 | CC(C)CCNC(=O)C(c1cccnc1)N(Cc1ccccc1)C(=O)Cn1nnc2ccccc21 (stereo unspecified) | inconclusive: 35.5 µM [activator, single point]
21 | O=S(=O)(c1ccccc1)N1CCN(c2cccc(Cl)c2)CC1 | inconclusive: 22.4 µM [inhibitor, single point]
22 | Cc1cc(C)c(C(=O)Nc2ccc(C)c(C)c2)c(CC(C)(C)C(=O)O)c1 | inactive
23 | Cc1ccc(Nc2nc(N)nc(CN3CCN(Cc4ccc5c(c4)OCO5)CC3)n2)cc1 | inconclusive: 35.5 µM [inhibitor, single point]

Taken from above.
Potency with CCC(C)Nc1sc(S(=O)(=O)CC)nc1S(=O)(=O)c1ccc(C)cc1 (stereo unspecified) reads inactive
Potency with CCOc1ccc(CNC(=O)CCCn2nc(C)c3sc4ccccc4c3c2=O)cc1 reads inconclusive: 12.6 µM [inhibitor, partial curve, poor fit]
Potency with C(=N\n1c2ccccc2c2ccccc21)/c1ccccc1 reads inactive
Potency with O=S(=O)(c1ccccc1)N1CCN(c2cccc(Cl)c2)CC1 reads inconclusive: 22.4 µM [inhibitor, single point]

Later entries

Row | Structure (SMILES) | Potency
24 | Cc1cccc(N=C2NC(=O)/C(=C/c3cccs3)S2)c1 | inconclusive: 35.5 µM [activator, single point]
25 | COc1ccccc1OCCCCOc1ccccc1F | inactive
26 | Oc1ccc(/C=N/Nc2cc(N3CCCC3)nc(N3CCCC3)n2)cc1 | inconclusive: 20.6 µM [inhibitor, partial curve]
27 | CCN(CC(=O)Nc1ccccc1C(F)(F)F)C(=O)CCc1c(C)[nH]c(=O)c(C#N)c1C | inconclusive: 4.47 µM [inhibitor, single point]
28 | COCCNC(=O)COC(=O)C1=Cc2ccccc2OC1 | inconclusive: 14.1 µM [activator, single point]
29 | CC(=O)Nc1cccc(NC(=O)Cc2nc(-c3ccccc3)sc2-c2ccc(C)cc2)c1 | inconclusive: 23.1 µM [inhibitor, single point]
30 | O=C(c1ccc(S(=O)(=O)Cc2ccccc2Cl)c([N+](=O)[O-])c1)N1CCN(c2ccccn2)CC1 | inconclusive: 12.6 µM [inhibitor, partial curve, poor fit]
31 | O=C(N/N=C/c1ccc2c(c1)OCO2)C1COc2ccccc2O1 (stereo unspecified) | inconclusive: 18.3 µM [inhibitor, partial curve, poor fit]
32 | COc1cc(C(=O)N2CCN(CC(O)COc3ccccc3)CC2)cc(OC)c1OC (stereo unspecified) | inactive
33 | O=C(Nc1ccccc1-c1nc2ccccc2s1)c1cccnc1Cl | inactive
34 | O=C(O)C1C2CCC(C2)C1C(=O)Nc1cccc([N+](=O)[O-])c1 (stereo unspecified) | inactive
35 | COc1cc(SC)ccc1C(=O)NCCOc1c(C)cc(C)cc1C | inactive
36 | Cc1csc(NC(=O)/C=C/c2ccc3c(c2)OCO3)n1 | active: 4.47 µM
37 | COC(=O)c1c(-c2ccccc2)csc1NC(=O)c1ccco1 | inconclusive: 2.59 µM [activator, partial curve, poor fit]
38 | CCOC(=O)N1CCN(C(=O)CSc2ccc3nnc(CCNC(=O)c4ccc(OC)cc4)n3n2)CC1 | inactive
39 | COc1ccc(CCNC(=O)c2nnn(CC(=O)Nc3cccc(F)c3)c2N)cc1OC | inconclusive: 1.78 µM [inhibitor, partial curve, poor fit]
40 | CCc1ccc(-c2csc(-c3c[nH]c4ccccc34)n2)cc1 | inconclusive: 35.5 µM [inhibitor, single point]
41 | COc1cc(C(=O)Nc2ccc(S(=O)(=O)N3CCOCC3)cc2)c([N+](=O)[O-])cc1OC | inconclusive: 0.562 µM [inhibitor, full curve, poor fit]
42 | Cc1cccc(C)c1N=C1NN=C(c2ccccc2F)CS1 | inconclusive: 8.91 µM [inhibitor, single point]
43 | O=C(NCC1CCCO1)c1ccc(N2CCCCC2)nc1 (stereo unspecified) | inactive
44 | Cc1cc(C)nc(N(C#N)CCOc2ccccc2)n1 | inconclusive: 7.94 µM [inhibitor, partial curve, poor fit]
45 | COc1cc(NC(=O)COC(=O)c2ccc(C)c(S(=O)(=O)N3CCCCC3)c2)c(C)cc1[N+](=O)[O-] | inactive
46 | Cc1cc(C)c(C#N)c(N2CCSCC2)n1 | inconclusive: 35.5 µM [activator, single point]
